Over roughly 3,200 compounds, “TSA(with NAD+) / Primary screening (TSA) / delta Tm (K)” has its median near -0.04; the highest 2% begin near 0.37. This is one part of the list.

The chains behind the UniProt entries cited, without tags or fusion partners. Residues count along the entry.
UniProt Q96EB6, 2-747 limits assumed: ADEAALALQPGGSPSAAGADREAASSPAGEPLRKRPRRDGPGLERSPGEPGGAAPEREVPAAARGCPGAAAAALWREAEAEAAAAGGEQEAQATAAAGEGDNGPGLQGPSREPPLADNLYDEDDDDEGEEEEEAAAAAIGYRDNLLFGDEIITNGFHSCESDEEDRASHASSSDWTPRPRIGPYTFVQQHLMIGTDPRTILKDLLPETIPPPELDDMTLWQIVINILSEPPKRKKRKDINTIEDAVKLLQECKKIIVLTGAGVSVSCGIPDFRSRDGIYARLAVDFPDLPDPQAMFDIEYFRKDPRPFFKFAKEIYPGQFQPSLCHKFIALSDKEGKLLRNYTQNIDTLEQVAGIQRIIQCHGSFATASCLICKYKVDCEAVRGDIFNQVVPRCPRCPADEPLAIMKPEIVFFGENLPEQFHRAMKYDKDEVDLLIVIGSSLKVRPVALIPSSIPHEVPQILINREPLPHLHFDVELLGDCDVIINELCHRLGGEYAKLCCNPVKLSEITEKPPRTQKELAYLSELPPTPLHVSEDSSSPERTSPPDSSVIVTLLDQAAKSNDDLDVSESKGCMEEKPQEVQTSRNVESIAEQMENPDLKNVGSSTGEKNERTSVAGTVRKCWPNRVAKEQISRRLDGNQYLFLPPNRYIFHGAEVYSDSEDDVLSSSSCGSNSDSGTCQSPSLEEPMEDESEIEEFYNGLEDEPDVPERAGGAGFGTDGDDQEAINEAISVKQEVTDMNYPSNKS

The target of the test is NAD-dependent deacetylase Sirtuin 1 (human, UniProt Q96EB6). Kind of test: primary screen, delta tm. Further details: single well (n = 1, as 'the same TSA'). The following applies: 10 µM. As to the method: A total of 3,192 compounds extracted from the proposed lists were first screened by thermal shift assay (TSA), which determined a melting temperature shift (ΔTm) of Sirtuin 1 upon the addition of a test compound at a concentration of 10 µM (n = 1) with primary hit criteria of ΔTm > 0.45 K or ΔTm < −1.5 K. Primary hits (48 compounds) were retested in the same assay at three concentrations (5, 10, 20 µM, n = 4) for hit confirmation and for dose-dependency check. Secondary hits (41 compounds) were checked their selectivity for Sirtuin 1 based on counterscreening on unrelated protein targets (bovine carbonic anhydrase (CA) and recombinant SH2 domain of hABL1 kinase (ABL1)) at three different concentrations (5, 10, 20 µM, n = 4), which yielded 38 hit compounds, hereafter referred to as TSA hits. The TSA screening above was conducted in the absence of NAD+. As noted, the structure of Sirtuin 1 is different in the presence of NAD+ and substrate. The chemical profile of TSA hits found from the different conditions could be different. […] As a result, 39 TSA hits were found.
`O=C1/C(=C/c2ccccc2Br)Oc2cc(O)ccc21`: the “TSA(with NAD+) / Primary screening (TSA) / delta Tm (K)” value came out at 0.08 K.

With `Oc1ccccc1O`, the “TSA(with NAD+) / Primary screening (TSA) / delta Tm (K)” value turned out to be 0.07 K. With `COC(=O)c1ccc2[nH]c(=O)[nH]c2c1OC` the figure was -0.12 K; with `COC(=O)Cn1c(CN2CCC(C(N)=O)CC2)nc2c1c(=O)n(C)c(=O)n2C`, -0.01 K; with `CC(CSc1nc2ccccc2o1)Cn1c(N2CCC(C(N)=O)CC2)nc2c1c(=O)[nH]c(=O)n2C` (stereo not drawn), -0.13 K. With `Cc1ccccc1C1CC1C(=O)N1C2C=C(c3ccccc3)CC1CC2` (stereo not drawn), the “TSA(with NAD+) / Primary screening (TSA) / delta Tm (K)” value was -0.23 K. The same measure for `O=C(CCc1c[nH]c2ccccc12)Nc1nnc(-c2ccccc2)o1`: 0.39 K; for `O=C(Nc1ccc(F)cc1F)c1ccc(/C=N/c2ccc(F)cc2F)cc1`: 0.07 K; for `CN(CC(=O)Nc1cccc2ccccc12)C(=O)C1=COCCO1`: -0.23 K. With `C=CCNc1nnc(SCC(=O)N(Cc2ccccc2)c2nc3c(s2)CCCC3)s1` the figure was -0.02 K; with `Cc1ccccc1CNC(=O)CSc1nc2ccsc2c(=O)n1C`, -0.22 K; with `O=S(=O)([O-])CCl`, -0.03 K. The same measure for `C[C@@H]1O[C@@H]1P(=O)([O-])[O-]`: -0.22 K; for `O=C(NCc1nnc2n1CCCCC2)c1ccc(-c2ccccc2)cc1`: 0.11 K. `O=C(CN1CCOCC1)N1CCN(Cc2ccc3c(c2)OCO3)CC1`: the “TSA(with NAD+) / Primary screening (TSA) / delta Tm (K)” value is listed as -0.08 K. The same measure for `CN1CCCN(c2ccc(NC(=O)NCCCNC(=O)c3cccc(O)c3)cc2F)CC1`: -0.05 K. The same measure for `COc1cccc(C#CCO)c1`: -0.16 K. On to `Cc1cc(C)nc(-n2nc(C)cc2NC(=O)CCc2ccc(S(=O)(=O)N3CCOCC3)cc2)n1`, for which the “TSA(with NAD+) / Primary screening (TSA) / delta Tm (K)” value is listed as -0.01 K. Consider `O=S(=O)([O-])CCS`, for which the “TSA(with NAD+) / Primary screening (TSA) / delta Tm (K)” value stood at 0.01 K.

As for `O=c1c2ccccc2n2c(SCC3CCCCO3)nnc2n1Cc1ccccc1` (stereo not drawn), the “TSA(with NAD+) / Primary screening (TSA) / delta Tm (K)” value is on record as -0.04 K. The same measure for `O=C(CN1CCN(C(=O)c2ccc(-c3ccc(F)cc3)o2)CC1)Nc1cccc(F)c1`: 0.19 K; for `CCc1nsc(N2CCC(Oc3ccnc(C(N)=O)c3)CC2)n1`: -0.11 K; for `CNc1ncnc2ccsc12`: -0.24 K. The same measure for `COCc1nc(NCC(c2ccc(OC)cc2)N2CCOCC2)c2c(-c3ccccc3)csc2n1` (stereo not drawn): -0.15 K. As for `O=C1NC(=O)C(=Cc2cn(-c3ccccc3)nc2-c2cc3c(ccc4ccccc43)oc2=O)C(=O)N1`, the “TSA(with NAD+) / Primary screening (TSA) / delta Tm (K)” value came to 0.01 K. The same measure for `CCN(CC)S(=O)(=O)c1ccc(OC(C)C)c(NC(=O)CC23CC4CC(CC(O)(C4)C2)C3)c1`: 0.17 K.

Consider `COc1ccc(N(C)S(=O)(=O)c2cccc(C(=O)Nc3ccc(C)cc3)c2)cc1`, for which the “TSA(with NAD+) / Primary screening (TSA) / delta Tm (K)” value turned out to be 0.11 K. With `CN(C)S(=O)(=O)c1ccc(C(=O)C2=C(O)C(=O)N(CCN3CCOCC3)C2c2ccccc2)cc1` (stereo not drawn) the figure was -0.09 K.

As to `CCN(CC(=O)Nc1ccc(OC)cc1)CC(=O)Nc1ccc(C(N)=O)cc1`, the “TSA(with NAD+) / Primary screening (TSA) / delta Tm (K)” value is given as -0.04 K. For the compound `Cc1nnc(N2CCN(C(=O)NC3CC3)CC2)c(C(N)=O)c1C`, the “TSA(with NAD+) / Primary screening (TSA) / delta Tm (K)” value is -0.01 K.

As to `CCn1c(SC(C)C(=O)Nc2sc3c(c2C(N)=O)CCC3)nnc1N1CCOCC1` (stereo not drawn), the “TSA(with NAD+) / Primary screening (TSA) / delta Tm (K)” value is -0.03 K.

For the compound `NC(=O)NC(=O)CCN1CCN(CC(=O)Nc2ccccc2)CC1`, the “TSA(with NAD+) / Primary screening (TSA) / delta Tm (K)” value is -0.03 K. The same measure for `O=C(CSc1nnc(NC2CC2)s1)N(Cc1ccccc1)c1nc2c(s1)CCCC2`: -0.14 K; for `O=C1/C(=C/c2cccc(F)c2)Oc2cc(O)ccc21`: -0.04 K; for `CC1CCCN(CCCNC(=O)CCc2cc3ccccc3[nH]c2=O)C1` (stereo not drawn): 0.11 K. With `CC(OC(=O)Cc1coc2cc(O)ccc12)C(=O)c1c[nH]c2ccccc12` (stereo not drawn) the figure was 0.17 K.

As to `CN(c1ccccc1C(N)=O)S(=O)(=O)c1ccc2c3c(cccc13)C(=O)N2`, the “TSA(with NAD+) / Primary screening (TSA) / delta Tm (K)” value is reported as -0.01 K. With `Cc1ccc(C23CC4CC(CC(C(=O)OCC(N)=O)(C4)C2)C3)cc1C` the figure was -0.16 K. With `COC(=O)Cn1c(=O)c(C(=O)COC(=O)C2CC(O)CN2S(=O)(=O)c2ccc3ccccc3c2)c(N)n(Cc2ccccc2)c1=O` (stereo not drawn) the figure was 0.23 K; with `CCn1c(SCC(=O)NCc2cccs2)nc2ccsc2c1=O`, 0.06 K. As for `COc1ccc(C(=O)C2=C(O)C(=O)N(CCCN3CCOCC3)C2c2ccc(C)cc2)cc1OC` (stereo not drawn), the “TSA(with NAD+) / Primary screening (TSA) / delta Tm (K)” value is listed as -0.09 K. Turning to `c1ccc2c3c(ccc2c1)C(Nc1ccc2nnnn2n1)CCCO3` (stereo not drawn), the “TSA(with NAD+) / Primary screening (TSA) / delta Tm (K)” value was 0.15 K. With `CCn1cnnc1C1CCN(c2ncc([N+](=O)[O-])cc2C(N)=O)CC1`, the “TSA(with NAD+) / Primary screening (TSA) / delta Tm (K)” value is reported as 0.02 K. The same measure for `O=C(NC1CCN(Cc2ccccc2)C1=O)c1cccnc1S` (stereo not drawn): -0.11 K.

For the compound `COc1ccc(C(=O)C2=C(O)C(=O)N(CCCN3CCOCC3)C2c2ccc(OC)cc2)cc1` (stereo not drawn), the “TSA(with NAD+) / Primary screening (TSA) / delta Tm (K)” value is recorded as -0.03 K. On to `C/C=C/c1ccc(OCC(=O)Nc2cccc(S(=O)(=O)NCc3ccco3)c2)c(OC)c1`, for which the “TSA(with NAD+) / Primary screening (TSA) / delta Tm (K)” value is -0.11 K. On to `O=C(COc1ccccc1Cc1ccccc1)NNC(=O)C1=COCCO1`, for which the “TSA(with NAD+) / Primary screening (TSA) / delta Tm (K)” value is given as -0.11 K. `O=C(C1=C(O)C(=O)N(CCCN2CCOCC2)C1c1ccc(F)cc1)c1cc2ccccc2o1` (stereo not drawn): the “TSA(with NAD+) / Primary screening (TSA) / delta Tm (K)” value worked out at 0.06 K. With `Cc1ccc(C(=O)C2=C(O)C(=O)N(CCCN3CCOCC3)C2c2ccc(OC(C)C)cc2)o1` (stereo not drawn) the figure was 0.02 K. Turning to `Cc1ccc(C(=O)Nc2ccc(N3CCN(Cc4ccccc4)CC3)cc2)cc1NC(=O)c1ccco1`, the “TSA(with NAD+) / Primary screening (TSA) / delta Tm (K)” value came to 0.12 K.

For `NC(=O)c1nn(CC(=O)Nc2ccc(N3CCN(Cc4ccccc4)CC3)cc2)c(=O)c2ccccc12`, the “TSA(with NAD+) / Primary screening (TSA) / delta Tm (K)” value turned out to be 0.18 K. On to `Cc1ccc(OC2CCN(Cc3cc(=O)n4c(-c5ccccc5)csc4n3)CC2)cc1C`, for which the “TSA(with NAD+) / Primary screening (TSA) / delta Tm (K)” value worked out at 0.09 K. The same measure for `NC(=O)C1CCN(c2ncnc3sc4c(c23)CCCC4)CC1`: 0.32 K.

`COc1ccccc1N1CCN(C(=O)c2ccccc2SCC(=O)NC23CC4CC(CC(C4)C2)C3)CC1`: the “TSA(with NAD+) / Primary screening (TSA) / delta Tm (K)” value is recorded as -0.13 K. With `CC(=O)NS(=O)(=O)c1ccc(NS(=O)(=O)c2cccs2)cc1` the figure was 0.06 K. With `CCn1nccc1CNc1cnc2c(c1)c(C)nn2C` the figure was -0.19 K; with `CNc1ncnc2c1cnn2-c1ccccc1`, -0.28 K.

Source of the values: publication PMC6925144, “A prospective compound screening contest identified broader inhibitors for Sirtuin 1” (Scientific Reports, 2019).
